For at least one compound, name, drawing or mass did not settle the structure.
Biological target: APC/C-Cdc20 (Xenopus laevis, UniProt Q6DFD4)
Test: Kinetics of APC/C-Cdc20-dependent ubiquitination of cyclin B1 N-terminal fragment
Format: biochemical
Details: competitive with cyclin B1 N-terminal fragment
Description: Measurements of kinetics of ubiquitination were performed using an N-terminal fragment of cyclin B1 and APC/C isolated from Xenopus extract, exactly as previously described (Zeng, X. & King, R. W. Nat Chem Biol 8, 383-392, (2012)).
Kinetic analysis of APC^Cdc20 reactions. Endogenous APC^Cdc20 was isolated from Xenopus extract as described above. The ubiquitination mixture was prepared as described in Cdc20 ubiquitination assay with the exception that 60 μM methylated ubiquitin was used in place of WT ubiquitin. CycB-NT was diluted into the mixture to final concentrations of 1 μM, 500 nM, 250 nM, 125 nM and 62.5 nM prior to the reaction. For each reaction, 2.5 μl beads were mixed with 20 μl ubiquitination mixture and left on a shaker at RT for 30 seconds. The reaction was stopped by adding 7 μl hot 4×LDS sample buffer (Invitrogen NP0007)+[…]. Band intensity of the mono-, di-, and tri-ubiquitinated cycB-NT was quantitated with Image J and fitted to a hyperbolic equation by nonlinear regression.

The chains behind the UniProt entries cited, without tags or fusion partners. Where a name states a change or a piece, a line headed by the entry shows the natural chain unless it says otherwise.
UniProt Q6DFD4: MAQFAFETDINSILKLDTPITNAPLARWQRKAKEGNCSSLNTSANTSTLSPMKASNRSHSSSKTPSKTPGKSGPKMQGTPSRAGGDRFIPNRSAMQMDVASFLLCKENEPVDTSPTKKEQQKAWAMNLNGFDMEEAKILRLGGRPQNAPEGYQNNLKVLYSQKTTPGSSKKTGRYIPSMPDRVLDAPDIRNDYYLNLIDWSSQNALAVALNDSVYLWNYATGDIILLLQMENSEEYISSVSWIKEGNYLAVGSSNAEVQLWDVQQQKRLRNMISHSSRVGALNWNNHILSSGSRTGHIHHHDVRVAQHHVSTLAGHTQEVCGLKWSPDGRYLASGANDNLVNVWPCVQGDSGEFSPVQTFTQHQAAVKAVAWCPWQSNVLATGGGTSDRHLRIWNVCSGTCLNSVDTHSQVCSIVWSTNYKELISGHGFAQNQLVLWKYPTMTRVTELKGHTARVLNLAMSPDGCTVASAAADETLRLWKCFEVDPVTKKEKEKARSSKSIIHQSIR

Cc1ncc([N+](=O)[O-])n1CCOC(=O)NC(Nc1ncccn1)C(Cl)(Cl)Cl (stereo not shown) [apcin]
Ki: 23 µM

From patent US9572788B2, “Cell permeable inhibitors of anaphase promoting complex” (President and Fellows of Harvard College, priority 2014, dated 2017)
